The assay concerns BDF1 mice, B16 melanoma ip, median survival T/C. Description: NCI In Vivo Anticancer Drug Screen. Data for tumor model B16 Melanoma (intraperitoneal) in B6D2F1 (BDF1) mice. Conditions: T/C endpoint: median survival time, higher T/C = longer survival. Summed up:
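Each result divides a survival or tumor-size measurement in the compound-treated group by the same measurement in the vehicle group.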

[1] abbreviates: dose: 12.5 mg/kg/injection, schedule: Q01DX009 (ip), vehicle: saline.
Setting [2] is: dose: 50.0 mg/kg/injection, schedule: Q01DX009 (ip), vehicle: Klucel (hydroxypropylcellulose) (HPC).
[3] abbreviates: dose: 100.0 mg/kg/injection, schedule: Q01DX009 (ip), vehicle: Klucel (hydroxypropylcellulose) (HPC).
Where [4] appears, read: dose: 12.5 mg/kg/injection, schedule: Q01DX009 (ip), vehicle: Klucel (hydroxypropylcellulose) (HPC).
[5] abbreviates: dose: 200.0 mg/kg/injection, schedule: Q01DX009 (ip), vehicle: saline with Tween-80.
[6] abbreviates: dose: 25.0 mg/kg/injection, schedule: Q01DX009 (ip), vehicle: Klucel (hydroxypropylcellulose) (HPC).

SMILES strings stand for the structures. The list is a part of this screen's results and no random one: it is rich in T/C values a quarter to a half above the control, in often repeated tests (any T/C) and in doses without a T/C. Further doses and runs are listed elsewhere. T/C gives the treated animals as a percentage of the vehicle group. Some entries give survivors of the animals treated and no T/C: the source holds a T/C of zero for them, seemingly a mark for toxic or unscored doses. Some doses without a T/C left all or most animals alive at the check, yet need not have been tolerated: survival well below the control is almost never listed, so the zero probably covers shortened survival too. Counts of survivors are from the toxicity check (mostly the fifth day) where no day follows; animals may have died later. Schedules are NCI's codes, taken here to give the interval after Q, in days (D) or hours (H), and the number of doses after X. Some structures stand for samples that the source files as different forms (salt, stereo form or complex); doses refer to the form tested. Where survival is the endpoint, this PubChem deposit counts one and a half times the control or more as active, and values a quarter to a half above the control carry no call in these data; other NCI protocols may use other cut-offs. Some T/C values are followed by the survivors on the day toxicity was checked, most often the fifth; without a count, all were alive then. Some entries hold several experiments; the results are listed from low to high.

This note sets out measurements from PubChem BioAssay AID192 (DTP/NCI, 2004).

With `COc1ccc2c(c1)c(C#N)cc[n+]2C`, under setting [1], the survivor count is recorded as 10 of 10.

Turning to `O=[N+]([O-])c1ccc([I+]c2ccccc2)cc1`, the survivor count under setting [2] is 10 of 10; the survivor count (dose: 50.0 mg/kg/injection, schedule: Q01DX009 (ip), vehicle: saline with Tween-80) is 8 of 10; the survivor count under setting [3] was 0 of 10; the survivor count (dose: 200.0 mg/kg/injection, schedule: Q01DX009 (ip), vehicle: Klucel (hydroxypropylcellulose) (HPC)) was 0 of 10.

Turning to `C=CCOP(=O)(OCC=C)OCC=C`, the survivor count under setting [4] is 5 of 6.

On to `COc1cc(C(=O)O)c(Br)cc1C`, for which the survivor count (dose: 400.0 mg/kg/injection, schedule: Q04DX003 (ip), vehicle: Klucel (hydroxypropylcellulose) (HPC)) is recorded as 10 of 10.

Consider `CCCSc1ncnc2nc[nH]c12`, for which the survivor count is, setting by setting: (dose: 100.0 mg/kg/injection, schedule: Q01DX009 (ip), vehicle: saline with Tween-80) 2 of 6; under setting [5], 0 of 6; (dose: 400.0 mg/kg/injection, schedule: Q01DX009 (ip), vehicle: saline with Tween-80) 0 of 6.

Consider `CC1(C)N=C(N)N=C(N)N1c1ccc(CNC(=O)Nc2ccc(S(=O)(=O)F)cc2)cc1`, for which the T/C (dose: 100.0 mg/kg/injection, schedule: Q04DX003 (ip), vehicle: saline) was 127 % of control; the T/C (dose: 200.0 mg/kg/injection, schedule: Q04DX003 (ip), vehicle: saline) was 141 % of control; the T/C (dose: 400.0 mg/kg/injection, schedule: Q04DX003 (ip), vehicle: saline) is 126 % of control.

Take `Cc1ccc(S(=O)(=O)N/N=C/c2ccccc2Cl)cc1`: the survivor count under setting [6] is given as 10 of 10.

`CC(C)NCC(=O)c1ccc(O)c(O)c1`: where the note is “dose: 400.0 mg/kg/injection, schedule: Q01DX009 (ip), vehicle: saline”, the survivor count is reported as 10 of 10.

With `COc1cc2cc3c4ccccc4cc[n+]3c(C)c2cc1OC` (tested in a mixture with another compound), the survivor count (dose: 40.0 mg/kg/injection, schedule: Q01DX009 (ip), vehicle: Klucel (hydroxypropylcellulose) (HPC)) is given as 9 of 10 and the survivor count (dose: 80.0 mg/kg/injection, schedule: Q01DX009 (ip), vehicle: Klucel (hydroxypropylcellulose) (HPC)) is on record as 7 of 10.

Consider `CC[P+](CC)(CC)CCCCI`, for which the T/C was 125 % of control under setting [1]; 130 % of control (dose: 25.0 mg/kg/injection, schedule: Q01DX009 (ip), vehicle: saline); 138 % of control (dose: 50.0 mg/kg/injection, schedule: Q01DX009 (ip), vehicle: saline). The survivor count is, setting by setting: (dose: 100.0 mg/kg/injection, schedule: Q01DX009 (ip), vehicle: saline) 0 of 10; (dose: 200.0 mg/kg/injection, schedule: Q01DX009 (ip), vehicle: saline) 0 of 10.

As to `CN(C)CCOc1ccc2c(c1)C/C(=C/c1ncc([N+](=O)[O-])n1C)C2=O`, the survivor count under setting [5] is 10 of 10.

With `Nc1ncnc2c(C3OC(CO)C(O)C3O)[nH]nc12` (stereo unspecified), the T/C (dose: 8.0 mg/kg/injection, schedule: Q01DX009 (ip), vehicle: saline) was 147 % of control. The survivor count is recorded as 6 of 6 (dose: 16.0 mg/kg/injection, schedule: Q01DX009 (ip), vehicle: saline); 6 of 6 (dose: 32.0 mg/kg/injection, schedule: Q01DX009 (ip), vehicle: saline); 6 of 6 (dose: 64.0 mg/kg/injection, schedule: Q01DX009 (ip), vehicle: saline).

On to `O=C1C=C[C@H](O)[C@@]2(CO)O[C@@H]12`, for which the survivor count runs as follows: (dose: 20.0 mg/kg/injection, schedule: Q01DX009 (ip), vehicle: saline with Tween-80) 1 of 10; (dose: 30.0 mg/kg/injection, schedule: Q01DX009 (ip), vehicle: saline with Tween-80) 0 of 10.

Consider `CC1=CC(=Nc2ccc(N(CCCl)CCCl)cc2)C=C(C)C1=O`, for which the T/C is 131 % of control under setting [4]; 136 and 136 % of control [9 of 10 alive] under setting [6]; 128 and 130 % of control under setting [2]. The survivor count by setting is: under setting [4], 10 of 10; under setting [2], 10 of 10; under setting [3], 9 of 10.

On to `CCCCCCCCCCCCCCCC(=O)N(CCCN(C)C)CCCN(CCCN(C)C)C(=O)CCCCCCCCCCCCCCC`, for which the survivor count (dose: 25.0 mg/kg/injection, schedule: Q01DX009 (ip), vehicle: water) is 10 of 10.
